Data reported in publication doi:10.1101/2021.10.13.464316 (bioRxiv, 2021).

The chains behind the UniProt entries cited, without tags or fusion partners. Where a name states a change or a piece, a line headed by the entry shows the natural chain unless it says otherwise.
UniProt Q9FID6: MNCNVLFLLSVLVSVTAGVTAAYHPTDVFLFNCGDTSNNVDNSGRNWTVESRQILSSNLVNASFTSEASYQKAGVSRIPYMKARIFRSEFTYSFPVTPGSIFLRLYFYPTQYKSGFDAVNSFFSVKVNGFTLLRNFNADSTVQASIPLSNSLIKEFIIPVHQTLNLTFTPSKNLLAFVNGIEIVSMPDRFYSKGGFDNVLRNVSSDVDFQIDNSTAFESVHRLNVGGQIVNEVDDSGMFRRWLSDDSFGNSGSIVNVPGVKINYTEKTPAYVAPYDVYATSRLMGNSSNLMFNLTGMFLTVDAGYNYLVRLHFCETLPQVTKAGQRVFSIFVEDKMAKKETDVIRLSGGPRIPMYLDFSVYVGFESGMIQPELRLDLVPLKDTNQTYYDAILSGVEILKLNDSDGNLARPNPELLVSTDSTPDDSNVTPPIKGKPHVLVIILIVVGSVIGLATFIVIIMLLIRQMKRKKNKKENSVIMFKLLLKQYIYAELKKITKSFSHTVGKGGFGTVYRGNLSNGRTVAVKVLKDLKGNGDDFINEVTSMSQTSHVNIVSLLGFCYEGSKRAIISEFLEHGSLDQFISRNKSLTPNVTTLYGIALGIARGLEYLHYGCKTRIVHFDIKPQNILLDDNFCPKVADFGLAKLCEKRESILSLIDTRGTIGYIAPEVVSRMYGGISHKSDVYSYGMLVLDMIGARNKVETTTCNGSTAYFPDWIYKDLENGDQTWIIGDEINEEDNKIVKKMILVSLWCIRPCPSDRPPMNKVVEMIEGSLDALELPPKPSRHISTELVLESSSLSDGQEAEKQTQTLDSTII
UniProt Q9FID9: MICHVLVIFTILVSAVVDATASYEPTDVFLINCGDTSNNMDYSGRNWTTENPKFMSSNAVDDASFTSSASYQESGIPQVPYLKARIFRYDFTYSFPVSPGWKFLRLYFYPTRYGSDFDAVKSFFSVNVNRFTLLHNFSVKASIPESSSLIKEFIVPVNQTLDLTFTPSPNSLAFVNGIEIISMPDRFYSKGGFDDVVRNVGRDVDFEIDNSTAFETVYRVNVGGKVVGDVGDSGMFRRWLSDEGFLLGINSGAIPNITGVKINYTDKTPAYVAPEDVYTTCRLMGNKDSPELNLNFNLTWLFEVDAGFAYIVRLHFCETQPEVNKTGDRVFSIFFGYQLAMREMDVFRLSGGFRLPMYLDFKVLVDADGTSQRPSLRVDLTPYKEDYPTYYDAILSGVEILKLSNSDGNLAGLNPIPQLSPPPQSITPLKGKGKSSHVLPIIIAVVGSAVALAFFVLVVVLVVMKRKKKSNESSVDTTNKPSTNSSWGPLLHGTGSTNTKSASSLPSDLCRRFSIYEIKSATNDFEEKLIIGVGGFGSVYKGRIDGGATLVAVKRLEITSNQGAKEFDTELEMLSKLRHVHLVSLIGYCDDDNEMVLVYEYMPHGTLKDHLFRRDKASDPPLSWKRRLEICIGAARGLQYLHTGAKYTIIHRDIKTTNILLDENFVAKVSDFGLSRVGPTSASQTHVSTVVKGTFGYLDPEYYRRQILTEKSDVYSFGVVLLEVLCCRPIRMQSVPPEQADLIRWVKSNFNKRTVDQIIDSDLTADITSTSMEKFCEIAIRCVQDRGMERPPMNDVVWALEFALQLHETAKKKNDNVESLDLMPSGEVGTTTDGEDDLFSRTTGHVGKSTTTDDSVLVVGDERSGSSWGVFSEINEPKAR
UniProt Q9SA72: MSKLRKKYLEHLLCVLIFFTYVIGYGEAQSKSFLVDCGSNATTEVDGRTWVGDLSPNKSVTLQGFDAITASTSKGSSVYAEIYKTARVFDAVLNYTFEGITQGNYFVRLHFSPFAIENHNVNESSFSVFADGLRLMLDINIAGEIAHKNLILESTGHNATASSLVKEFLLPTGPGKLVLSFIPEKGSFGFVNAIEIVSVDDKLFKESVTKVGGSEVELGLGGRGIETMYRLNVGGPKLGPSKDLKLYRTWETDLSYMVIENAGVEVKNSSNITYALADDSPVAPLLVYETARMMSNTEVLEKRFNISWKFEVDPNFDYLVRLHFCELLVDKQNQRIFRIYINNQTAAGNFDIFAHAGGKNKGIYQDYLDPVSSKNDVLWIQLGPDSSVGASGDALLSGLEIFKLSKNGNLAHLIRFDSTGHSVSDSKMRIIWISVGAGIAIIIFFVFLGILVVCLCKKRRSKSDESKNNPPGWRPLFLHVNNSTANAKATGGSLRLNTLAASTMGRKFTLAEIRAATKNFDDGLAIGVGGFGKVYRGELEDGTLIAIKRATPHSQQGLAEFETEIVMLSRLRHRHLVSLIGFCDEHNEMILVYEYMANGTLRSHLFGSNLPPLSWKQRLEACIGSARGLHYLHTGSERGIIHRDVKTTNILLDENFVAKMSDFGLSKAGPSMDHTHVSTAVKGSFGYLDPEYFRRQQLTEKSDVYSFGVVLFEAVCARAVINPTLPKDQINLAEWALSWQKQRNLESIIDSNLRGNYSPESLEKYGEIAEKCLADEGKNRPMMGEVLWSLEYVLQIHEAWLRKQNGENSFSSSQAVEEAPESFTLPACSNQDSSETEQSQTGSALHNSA
UniProt O80623: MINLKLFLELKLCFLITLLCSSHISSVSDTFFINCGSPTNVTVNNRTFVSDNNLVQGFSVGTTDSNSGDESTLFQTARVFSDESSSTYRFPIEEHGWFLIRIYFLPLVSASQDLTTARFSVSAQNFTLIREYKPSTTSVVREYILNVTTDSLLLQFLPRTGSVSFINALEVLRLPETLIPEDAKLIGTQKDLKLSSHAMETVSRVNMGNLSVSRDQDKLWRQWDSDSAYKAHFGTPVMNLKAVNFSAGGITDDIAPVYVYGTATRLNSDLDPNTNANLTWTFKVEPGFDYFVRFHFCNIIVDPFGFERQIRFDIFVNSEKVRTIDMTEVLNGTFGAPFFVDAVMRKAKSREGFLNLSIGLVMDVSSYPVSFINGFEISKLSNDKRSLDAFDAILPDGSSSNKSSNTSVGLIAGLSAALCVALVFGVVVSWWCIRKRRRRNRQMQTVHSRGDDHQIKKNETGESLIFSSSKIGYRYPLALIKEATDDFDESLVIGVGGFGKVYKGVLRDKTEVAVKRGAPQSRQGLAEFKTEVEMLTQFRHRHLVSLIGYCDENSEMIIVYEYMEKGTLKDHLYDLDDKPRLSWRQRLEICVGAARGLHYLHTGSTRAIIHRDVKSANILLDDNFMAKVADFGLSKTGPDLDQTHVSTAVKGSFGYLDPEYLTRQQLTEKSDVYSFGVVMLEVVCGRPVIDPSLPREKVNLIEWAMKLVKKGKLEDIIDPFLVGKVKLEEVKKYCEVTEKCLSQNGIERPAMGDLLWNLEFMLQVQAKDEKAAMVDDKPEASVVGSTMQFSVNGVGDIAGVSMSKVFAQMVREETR
UniProt Q9T020: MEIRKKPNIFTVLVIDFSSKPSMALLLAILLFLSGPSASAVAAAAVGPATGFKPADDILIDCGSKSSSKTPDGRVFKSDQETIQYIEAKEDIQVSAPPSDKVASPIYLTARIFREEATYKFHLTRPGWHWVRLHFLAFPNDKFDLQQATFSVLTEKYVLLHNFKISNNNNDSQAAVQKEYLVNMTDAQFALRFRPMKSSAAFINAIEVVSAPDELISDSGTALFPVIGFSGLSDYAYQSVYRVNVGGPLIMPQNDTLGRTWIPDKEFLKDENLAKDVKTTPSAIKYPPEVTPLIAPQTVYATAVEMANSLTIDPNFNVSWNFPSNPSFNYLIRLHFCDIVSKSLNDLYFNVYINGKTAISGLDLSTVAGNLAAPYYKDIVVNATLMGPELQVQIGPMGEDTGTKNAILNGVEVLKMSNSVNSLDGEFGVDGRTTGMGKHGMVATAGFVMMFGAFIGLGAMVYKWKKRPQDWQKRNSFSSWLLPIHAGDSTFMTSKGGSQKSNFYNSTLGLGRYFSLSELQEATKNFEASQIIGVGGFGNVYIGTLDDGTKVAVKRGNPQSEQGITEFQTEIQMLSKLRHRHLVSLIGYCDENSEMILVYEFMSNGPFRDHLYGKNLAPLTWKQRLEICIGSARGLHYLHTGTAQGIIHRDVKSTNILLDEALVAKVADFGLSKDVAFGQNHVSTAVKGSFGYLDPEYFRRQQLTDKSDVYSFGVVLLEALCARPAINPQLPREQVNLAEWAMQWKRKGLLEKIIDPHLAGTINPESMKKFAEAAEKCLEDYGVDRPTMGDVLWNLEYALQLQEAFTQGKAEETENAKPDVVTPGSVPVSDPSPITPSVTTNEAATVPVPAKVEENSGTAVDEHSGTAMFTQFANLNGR

Legend:
Assay in all cases: two-hybrid
[1] = biological target: cytoplasmic domain of MDS3 fused to the GAL4 DNA-binding domain (Arabidopsis thaliana) (UniProt Q9FID6)
[2] = biological target: cytoplasmic domain of MDS1 fused to the GAL4 DNA-binding domain (Arabidopsis thaliana) (UniProt Q9FID9)
[3] = biological target: cytoplasmic domain of HERK2 fused to the GAL4 DNA-binding domain (Arabidopsis thaliana) (UniProt Q9SA72)
[4] = biological target: cytoplasmic domain of CVY1 fused to the GAL4 DNA-binding domain (Arabidopsis thaliana) (UniProt O80623)
[5] = biological target: cytoplasmic domain of BUPS1 fused to the GAL4 DNA-binding domain (Arabidopsis thaliana) (UniProt Q9T020)

binding [1]: no binding | binding [2]: no binding | binding [3]: no binding | binding [4]: no binding | binding [5]: binds
B1: GST–CAR9 (natural protein)
chain: MEDKPLGILRVHVKRGINLAIRDATTSDPYVVITLANQKLKTRVINNNCNPVWNEQLTLSIKDVNDPIRLTVFDKDRFSGDDKMGDAEIDFRPFLEAHQMELDFQKLPNGCAIKRIRPGRTNCLAEESSITWSNGKIMQEMILRLKNVECGEVELMLEWTDGPGCKGLGREGSKKTPWMPTKRLD

Results are given in words; binding and its absence hold for the method and conditions named. For some assays here: A result given as binding can be weak or reduced; the word gives no strength. Tags and fused reporters may be left off the sequences shown.
